Measured data: PubChem BioAssay AID1259308 (NCATS, 2017)
Test: 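Candidate targets for better recombinant protein yield in mammalian cells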 (primary screen). Cells: human HEK293 embryonic kidney cells stably expressing firefly luciferase (HEK-CMV-Luc2-Hygro). Knock-down reagent: single siRNA against human genes, 0.8 pmol siRNA per well. Duration: 72 h. Measured: 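Reporter luminescence and viable-cell signal on separate replicate plates, given as percent of non-targeting control and median/MAD z-scores, plus per-cell luciferase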. Scale: total luciferase, z-score and total luciferase, % of control: higher = more reporter protein produced. Active means: 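An siRNA counts as active if its total luciferase robust z-score exceeds 3; genes with two or more such siRNAs out of three were retested with fresh siRNAs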. Calls: active = raised luciferase; inactive = no rise.
The whole screen tested about 59,000 reagents; shown is a random part of them. In the full data, about 1,510 (2.6%) got an active call. 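Calls use total luciferase alone and ignore viability, so some active siRNAs may act by altering cell number.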 The numbers tell different reagents against one gene apart. Further read-outs or replicates are left out here.

With knock-down of TULP1 (TUB like protein 1) #1, the record shows total luciferase, z-score -0.49; total luciferase, % of control 72.1; inactive. TULP1 (TUB like protein 1) #2 gave total luciferase, z-score -0.00401; total luciferase, % of control 81.8; inactive. Depletion of TULP1 (TUB like protein 1) #3 gave: total luciferase, z-score 0.539; total luciferase, % of control 92.6; inactive. WBP4 (WW domain binding protein 4) #1 showed total luciferase, z-score -0.506; total luciferase, % of control 71.8; inactive. With knock-down of WBP4 (WW domain binding protein 4) #2, the screen gave total luciferase, z-score 0.284; total luciferase, % of control 87.5; inactive. After knock-down of WBP4 (WW domain binding protein 4) #3, the record shows total luciferase, z-score -1.03; total luciferase, % of control 61.4; inactive.

2 entries from above, reformatted.
| gene symbol | siRNA no. | total luciferase, z-score | total luciferase, % of control | Outcome |
| --- | --- | --- | --- | --- |
| WBP4 (WW domain binding protein 4) | 2 | 0.284 | 87.5 | inactive |
| WBP4 (WW domain binding protein 4) | 3 | -1.03 | 61.4 | inactive |

The listing continues:
AP1G2 (adaptor related protein complex 1 subunit gamma 2) #1 scored total luciferase, z-score 1.63; total luciferase, % of control 114; inactive. Against AP1G2 (adaptor related protein complex 1 subunit gamma 2) #2, the entry reads total luciferase, z-score 0.713; total luciferase, % of control 96.1; inactive. AP1G2 (adaptor related protein complex 1 subunit gamma 2) #3 gave total luciferase, z-score -0.61; total luciferase, % of control 69.8; inactive. SMAD5 (SMAD family member 5) #1 gave total luciferase, z-score -1.99; total luciferase, % of control 42.3; inactive. With knock-down of SMAD5 (SMAD family member 5) #2, the screen gave total luciferase, z-score 0.0394; total luciferase, % of control 82.7; inactive. After knock-down of SMAD5 (SMAD family member 5) #3 the results were total luciferase, z-score -0.561; total luciferase, % of control 70.7; inactive.
